{"source": "PubChem BioAssay AID328", "about": "(DTP/NCI, 2004)", "tested_on": "BDF1 mice, P388 leukemia ip, median survival T/C", "assay": "NCI In Vivo Anticancer Drug Screen. Data for tumor model P388 Leukemia (intraperitoneal) in B6D2F1 (BDF1) mice", "details": "T/C endpoint: median survival time, higher T/C = longer survival", "in_short": "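Steps: implant the tumour, treat one group with compound and another with vehicle, record survival, then divide treated by control.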", "key": {"[1]": {"details": "dose: 25.0 mg/kg/injection, schedule: Q01DX010 (ip), vehicle: carboxymethylcellulose (CMC)"}, "[2]": {"details": "dose: 50.0 mg/kg/injection, schedule: Q01DX010 (ip), vehicle: carboxymethylcellulose (CMC)"}}, "note": "The list shows only some results of the screen, not a fair sample: it gathers tests that were run many times, whatever their T/C, doses with no T/C, and many T/C values between a quarter and a half above the control. Further doses and runs are listed elsewhere. T/C gives the treated animals as a percentage of the vehicle group. Some entries give survivors of the animals treated and no T/C: the source files T/C as zero there, which appears to mark a toxic dose or a test without result, not a measured value. Some doses without a T/C left all or most animals alive at the check, yet need not have been tolerated: survival well below the control is almost never listed, so the zero probably covers shortened survival too. Counts of survivors are from the toxicity check (mostly the fifth day) where no day follows; animals may have died later. Schedule codes are those of the source, taken here to give the interval after Q, in days (D) or hours (H), and the number of doses after X. For survival time, the PubChem record calls one and a half times the control and up active, and a quarter to a half above the control has no call in these data; cut-offs in other NCI protocols can differ. Some doses were run more than once; their values stand side by side, smallest first.", "data": [{"smiles": "CC(=O)OC1(C)CC(C)C(=O)C(C(O)CC2CC(=O)NC(=O)C2)C1", "note": "(stereo unspecified)", "values": [{"measurement": "T/C", "setting": "dose: 0.13 mg/kg/injection, schedule: Q01DX010 (ip), vehicle: water", "result": "127 % of control"}, {"measurement": "T/C", "setting": "dose: 1.17 mg/kg/injection, schedule: Q04DX003 (ip), vehicle: saline", "result": "125 % of control"}, {"measurement": "T/C", "setting": "dose: 1.94 mg/kg/injection, schedule: Q04DX003 (ip), vehicle: saline", "result": "132 % of control"}, {"measurement": "T/C", "setting": "dose: 3.24 mg/kg/injection, schedule: Q04DX003 (ip), vehicle: saline", "result": "127 % of control"}, {"measurement": "survivor count", "setting": "dose: 10.0 mg/kg/injection, schedule: Q01DX001 (sc), vehicle: saline", "result": "5 of 8"}, {"measurement": "survivor count", "setting": "dose: 16.7 mg/kg/injection, schedule: Q01DX001 (sc), vehicle: saline", "result": "3 of 8"}, {"measurement": "survivor count", "setting": "dose: 6000.0 micrograms/kg/injection, schedule: Q04DX003 (sc), vehicle: saline", "result": "7 of 8"}]}, {"smiles": "Cc1cn(C)c2nccnc12", "values": [{"measurement": "survivor count", "setting": "dose: 400.0 mg/kg/injection, schedule: Q01DX009 (ip), vehicle: water", "result": "0 of 6"}, {"measurement": "survivor count", "setting": "dose: 400.0 mg/kg/injection, schedule: Q04DX003 (ip), vehicle: water", "result": "0 of 6"}]}, {"smiles": "C(=N\\Nc1nc2ccccc2o1)/c1ccncc1", "values": [{"measurement": "T/C", "setting": "dose: 200.0 mg/kg/injection, schedule: Q01DX009 (ip), vehicle: Klucel (hydroxypropylcellulose) (HPC)", "result": "125 % of control"}]}, {"smiles": "CCOP(=O)(N1CC1(C)C)N1CC1(C)C", "note": "(stereo unspecified)", "values": [{"measurement": "T/C", "setting": "dose: 100.0 mg/kg/injection, schedule: Q04DX003 (ip), vehicle: alcohol", "result": "145 % of control"}, {"measurement": "survivor count", "setting": "dose: 200.0 mg/kg/injection, schedule: Q04DX003 (ip), vehicle: alcohol", "result": "3 of 6"}]}, {"smiles": "CC(=O)[O][Hg][c]1s[c]([Hg][O]C(C)=O)[c]([Hg][O]C(C)=O)[c]1[Hg][O]C(C)=O", "values": [{"measurement": "survivor count", "setting": "dose: 15.0 mg/kg/injection, schedule: Q04DX003 (ip), vehicle: saline", "result": "2 of 6"}, {"measurement": "survivor count", "setting": "dose: 30.0 mg/kg/injection, schedule: Q04DX003 (ip), vehicle: saline", "result": "3 of 6"}]}, {"smiles": "NC(N)=Nc1ccc(C(=O)Oc2ccc([N+](=O)[O-])cc2CN2CCCCC2)cc1", "values": [{"measurement": "survivor count", "setting": "dose: 12.5 mg/kg/injection, schedule: Q01DX009 (ip), vehicle: water", "result": "1 of 6"}, {"measurement": "survivor count", "setting": "dose: 25.0 mg/kg/injection, schedule: Q01DX009 (ip), vehicle: water", "result": "0 of 6"}]}, {"smiles": "O=C(c1ccccc1)C12CC3CC(CC(C3)C1)C2", "values": [{"measurement": "T/C", "setting": "dose: 12.5 mg/kg/injection, schedule: Q01DX009 (ip), vehicle: saline with Tween-80", "result": "126 % of control"}, {"measurement": "survivor count", "setting": "dose: 25.0 mg/kg/injection, schedule: Q01DX009 (ip), vehicle: saline with Tween-80", "result": "6 of 6"}, {"measurement": "survivor count", "setting": "dose: 50.0 mg/kg/injection, schedule: Q01DX009 (ip), vehicle: saline with Tween-80", "result": "6 of 6"}, {"measurement": "survivor count", "setting": "dose: 100.0 mg/kg/injection, schedule: Q01DX009 (ip), vehicle: saline with Tween-80", "result": "6 of 6"}]}, {"smiles": "Cn1c(=O)c2nc(-c3ccc(Cl)c(Cl)c3)c(-c3ccc(Cl)c(Cl)c3)nc2n(C)c1=O", "values": [{"measurement": "T/C", "setting": "dose: 12.5 mg/kg/injection, schedule: Q01DX001 (ip), vehicle: saline with Tween-80", "result": "127 % of control"}, {"measurement": "survivor count", "setting": "dose: 200.0 mg/kg/injection, schedule: Q01DX001 (ip), vehicle: saline with Tween-80", "result": "6 of 6"}]}, {"smiles": "Nc1ccc2c(c1)OCO2", "values": [{"measurement": "survivor count", "setting": "dose: 200.0 mg/kg/injection, schedule: Q01DX009 (sc), vehicle: olive oil, sesame oil, peanut oil", "result": "0 of 6"}, {"measurement": "survivor count", "setting": "dose: 400.0 mg/kg/injection, schedule: Q01DX009 (sc), vehicle: olive oil, sesame oil, peanut oil", "result": "0 of 6"}]}, {"smiles": "CN(CO)c1nc(N(C)CO)nc(N(C)CO)n1", "values": [{"measurement": "T/C", "setting": "dose: 50.0 mg/kg/injection, schedule: Q01DX005 (ip), vehicle: saline", "result": "135 % of control"}]}, {"smiles": "COc1cc([C@@H]2c3cc4c(cc3C[C@H]3COC(=O)[C@@H]32)OCO4)cc(OC)c1OC", "values": [{"measurement": "T/C", "setting": "dose: 2.5 mg/kg/injection, schedule: Q01DX010 (ip), vehicle: other", "result": "127 % of control"}, {"measurement": "T/C", "setting": "dose: 5.0 mg/kg/injection, schedule: Q01DX010 (ip), vehicle: other", "result": "136 % of control"}, {"measurement": "T/C", "setting": "dose: 5.0 mg/kg/injection, schedule: Q01DX010 (ip), vehicle: saline", "result": "127 % of control"}, {"measurement": "T/C", "setting": "dose: 10.0 mg/kg/injection, schedule: Q01DX001 (ip), vehicle: other", "result": "131 % of control"}, {"measurement": "T/C", "setting": "dose: 10.0 mg/kg/injection, schedule: Q01DX010 (ip), vehicle: saline", "result": "131 and 145 % of control"}, {"measurement": "survivor count", "setting": "dose: 12.5 mg/kg/injection, schedule: Q01DX010 (ip), vehicle: carboxymethylcellulose (CMC)", "result": "2 of 6"}, {"measurement": "T/C", "setting": "dose: 20.0 mg/kg/injection, schedule: Q01DX001 (ip), vehicle: other", "result": "131 % of control"}, {"measurement": "survivor count", "setting": "dose: 20.0 mg/kg/injection, schedule: Q01DX010 (ip), vehicle: saline", "result": "6 of 6"}, {"measurement": "survivor count", "setting": "[1]", "result": "2 of 6"}, {"measurement": "survivor count", "setting": "dose: 40.0 mg/kg/injection, schedule: Q01DX010 (ip), vehicle: saline", "result": "6 of 6"}, {"measurement": "survivor count", "setting": "[2]", "result": "0 of 6"}, {"measurement": "survivor count", "setting": "dose: 80.0 mg/kg/injection, schedule: Q01DX010 (ip), vehicle: saline", "result": "0 of 6"}]}, {"smiles": "O=C1COc2ccccc2N1", "values": [{"measurement": "survivor count", "setting": "dose: 400.0 mg/kg/injection, schedule: Q01DX001 (ip), vehicle: Klucel (hydroxypropylcellulose) (HPC)", "result": "0 of 6"}]}, {"smiles": "COc1cccc(/C=C/[N+](=O)[O-])c1OC", "values": [{"measurement": "T/C", "setting": "dose: 12.5 mg/kg/injection, schedule: Q01DX009 (ip), vehicle: Klucel (hydroxypropylcellulose) (HPC)", "result": "125 % of control"}, {"measurement": "T/C", "setting": "dose: 16.0 mg/kg/injection, schedule: Q01DX009 (ip), vehicle: Klucel (hydroxypropylcellulose) (HPC)", "result": "142 % of control"}, {"measurement": "T/C", "setting": "dose: 25.0 mg/kg/injection, schedule: Q01DX009 (ip), vehicle: Klucel (hydroxypropylcellulose) (HPC)", "result": "125 and 142 % of control"}, {"measurement": "T/C", "setting": "[1]", "result": "140 % of control"}, {"measurement": "survivor count", "setting": "dose: 50.0 mg/kg/injection, schedule: Q01DX009 (ip), vehicle: Klucel (hydroxypropylcellulose) (HPC)", "result": "6 of 6"}, {"measurement": "survivor count", "setting": "[2]", "result": "5 of 6"}, {"measurement": "survivor count", "setting": "dose: 50.0 mg/kg/injection, schedule: Q04DX003 (ip), vehicle: saline", "result": "6 of 6"}, {"measurement": "survivor count", "setting": "dose: 100.0 mg/kg/injection, schedule: Q01DX010 (ip), vehicle: carboxymethylcellulose (CMC)", "result": "0 of 6"}, {"measurement": "T/C", "setting": "dose: 100.0 mg/kg/injection, schedule: Q04DX003 (ip), vehicle: saline", "result": "132 % of control"}, {"measurement": "survivor count", "setting": "dose: 200.0 mg/kg/injection, schedule: Q01DX010 (ip), vehicle: carboxymethylcellulose (CMC)", "result": "0 of 6"}, {"measurement": "T/C", "setting": "dose: 200.0 mg/kg/injection, schedule: Q04DX003 (ip), vehicle: saline", "result": "130 % of control"}, {"measurement": "survivor count", "setting": "dose: 400.0 mg/kg/injection, schedule: Q04DX003 (ip), vehicle: saline", "result": "3 of 6"}]}, {"smiles": "C/C(=C\\c1ccc(C)cc1)[N+](=O)[O-]", "values": [{"measurement": "survivor count", "setting": "dose: 140.0 mg/kg/injection, schedule: Q01DX010 (ip), vehicle: saline", "result": "6 of 6"}]}, {"smiles": "ONc1ncnc2nc[nH]c12", "values": [{"measurement": "T/C", "setting": "dose: 66.0 mg/kg/injection, schedule: Q04DX003 (ip), vehicle: saline with Tween-80", "result": "127 % of control"}, {"measurement": "T/C", "setting": "dose: 100.0 mg/kg/injection, schedule: Q04DX003 (ip), vehicle: saline with Tween-80", "result": "140 % of control"}, {"measurement": "T/C", "setting": "dose: 150.0 mg/kg/injection, schedule: Q04DX003 (ip), vehicle: saline with Tween-80", "result": "145 % of control"}]}, {"smiles": "O=c1ccc2nc3cc(Cl)ccc3sc-2c1", "values": [{"measurement": "survivor count", "setting": "dose: 100.0 mg/kg/injection, schedule: Q01DX009 (ip), vehicle: Klucel (hydroxypropylcellulose) (HPC)", "result": "6 of 6"}, {"measurement": "T/C", "setting": "dose: 400.0 mg/kg/injection, schedule: Q01DX009 (ip), vehicle: Klucel (hydroxypropylcellulose) (HPC)", "result": "125 % of control"}]}]}
